The test has as its target cynomolgus monkey CD38 (cynomolgus monkey) (UniProt Q5VAN0). The test is described as follows: ELISA, antigen coated on plate. On the technique in general: In an ELISA, binding on a coated surface is turned into a signal by an enzyme label.

Chains of the proteins cited; added tags and fusions are not shown. Residues count along the entry.
UniProt Q5VAN0, residues 44-301: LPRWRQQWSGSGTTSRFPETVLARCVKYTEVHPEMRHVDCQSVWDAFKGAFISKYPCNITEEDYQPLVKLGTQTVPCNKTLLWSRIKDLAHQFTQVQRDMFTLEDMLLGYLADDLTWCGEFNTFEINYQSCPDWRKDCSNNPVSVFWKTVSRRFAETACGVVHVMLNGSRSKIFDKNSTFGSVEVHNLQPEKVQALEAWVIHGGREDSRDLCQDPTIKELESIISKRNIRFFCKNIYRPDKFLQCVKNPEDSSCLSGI

Results are given in words; binding and its absence hold for the method and conditions named. Some entries that bind do so weakly or less than the wild type.

Take “CD38hhy1195/CD28sup x CD3mid_ENLQ DKTHT IgG4 FALA (from UniProt P0DOX7 1-214)”: the binding entry is “binds”.
